Values of other authors as cited in patent US12194054B2, “Application of Chidamide in combination with R-CHOP, and drug combination” (SHENZHEN CHIPSCREEN BIOSCIENCES CO., LTD., priority 2018, dated 2025).
For at least one compound, name, drawing or mass did not settle the structure.

Assays:
[1] = system: T-cell non-Hodgkin's malignant lymphoma; details: monotherapy, phase I
[2] = system: B-cell non-Hodgkin's lymphoma; details: Chidamide alone, 3 cases: one progression of disease, two stable disease

Nc1cc(F)ccc1NC(=O)c1ccc(CNC(=O)/C=C/c2cccnc2)cc1 [Chidamide]
effective remission rate [1]: 80% | effectiveness in the treatment of B-cell lymphoma [2]: no effectiveness
